Assay results as given in PubChem BioAssay AID504444 (National Center for Advancing Translational Sciences (NCATS), 2011).
Several values for one entry are separate records, joined by “and”; a condition that tells them apart may be missing. Equal entries are not always repeated. Out of some 360,000 compounds screened, about 7,500 (2.1%) were called active. The shares of active, inactive and inconclusive entries below differ from those in the screen. Calls follow the shape of the dose curve; as a rule, active = well fitted inhibition curve with a large enough effect; inconclusive = small, poorly fitted or top-dose-only effect, or effect the other way; inactive = flat fitted curve, though single readings scatter. Potencies of inconclusive entries are doubtful fits and often do not repeat. Some compounds were tested as several samples or in several runs, with calls that do not always agree.

Assay: Nrf2 qHTS screen for inhibitors; also: nearly all actives have a fitted effect of over 60% in size
Details: A549 ARE-Fluc reporter, luciferase luminescence, 18-24 h; series mostly up to 46 µM
In short: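 Cells were seeded and rested 2 h, then exposed to compounds for 18-24 h. CellTiter-Fluor was read first as a viability measure. BugLite was added 15 min before the final luminescent read of ARE-luciferase activity in A549 cells.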
Potency is read from the fitted curve at half-maximal effect.

Structure (SMILES) | Potency
Cc1ccccc1NC(=S)NC(NC(=O)COc1ccccc1)C(Cl)(Cl)Cl (stereo not drawn) | inconclusive: 18.4 µM [falling, single point]
Cc1nnc(NC(=O)c2nc(S(=O)(=O)Cc3ccccc3C)ncc2Cl)s1 | inconclusive: 32.6 µM [falling, partial curve, poor fit]
COc1ccc(NC(=O)Cn2c(SCc3cccc(Cl)c3)nc3ccncc32)c(OC)c1OC | inactive
CCn1c(CCNC(=O)c2cccs2)nnc1SCC(=O)Nc1nc(-c2ccccc2)cs1 | inconclusive: 29.1 µM [falling, partial curve, poor fit]
O=C(Nc1ccccc1C(=O)N/N=C/c1ccco1)c1ccc(Cl)cc1 | inactive
COc1ccc(OC)c(S(=O)(=O)N2CCN(CC(O)COc3ccc(C#N)cc3)CC2)c1 (stereo not drawn) | inconclusive: 9.2 µM [falling, partial curve]
NC(=O)c1ccc(NC(=O)CN2CCN(S(=O)(=O)c3ccc4c(c3)OCCO4)CC2)cc1 | inconclusive: 10.3 µM [falling, partial curve, poor fit]
COc1ccc2oc(=O)c(C(=O)Nc3ccccc3-c3ccccc3)cc2c1 | inconclusive: 1.84 µM [activator, full curve, poor fit]
CCOC(=O)[C@@H]1[C@H]2COc3cc(OC)ccc3[C@H]2N2C(=O)N(c3cccc(F)c3)C(=O)[C@@]12C | inconclusive: 13 µM [falling, partial curve, poor fit]
CCOc1cc(C(N)=O)cc(Br)c1OC | inconclusive: 10.3 µM [falling, partial curve]
Cc1cc(C)nc(SCCCNCc2ccc(Br)cc2)n1 | inconclusive: 10.3 µM [falling, partial curve, poor fit]
O=c1cc(CN2CCN(S(=O)(=O)c3ccc4c(c3)OCCO4)CC2)c2ccc(O)cc2o1 | inconclusive: 8.2 µM [falling, partial curve, poor fit]
Cc1cccc(NC(=O)c2cc(S(=O)(=O)N(C)c3ccc(F)cc3)ccc2Cl)n1 | inconclusive: 29.1 µM [falling, single point]
CN(Cc1ccco1)C(=O)c1ccc(CNS(=O)(=O)c2ccc3c(c2)C(C)(C)C(=O)N3C)cc1 | inconclusive: 1.64 µM [falling, partial curve, poor fit]
CC(C)CCNC(=O)C(c1ccco1)N(Cc1ccc(F)cc1)C(=O)c1snc(C(N)=O)c1N (stereo not drawn) | inconclusive: 32.6 µM [falling, partial curve, poor fit]
N#C/C(=C\c1ccc[nH]1)C(=O)Nc1ccccc1F | inconclusive: 5.8 µM [activator, full curve, poor fit]
CC1CC(C)CN(CCCNC(=O)c2csc3c2CCCC3)C1 (stereo not drawn) | inconclusive: 16.4 µM [falling, partial curve]
CCN(CC)S(=O)(=O)c1ccc(Cl)c(C(=O)Nc2cc(C)nn2-c2ccccc2)c1 | inconclusive: 25.9 µM [falling, partial curve, poor fit]
O=C(COC(=O)c1ccc(S(=O)(=O)N2CCCC2)cc1)Nc1cccnc1Cl | inactive
Clc1ccc(OCc2nn3c(-c4ccco4)nnc3s2)c(Cl)c1 | inconclusive: 7.31 µM [falling, partial curve, poor fit]
O=C(CSc1nnnn1-c1cccc2ccccc12)Nc1ccc(C(=O)O)cc1 | inconclusive: 7.31 µM [falling, partial curve, poor fit]

Already shown: an excerpt of the list.
Structure (SMILES) | Potency
CCOc1cc(C(N)=O)cc(Br)c1OC | inconclusive: 10.3 µM [falling, partial curve]
Cc1cc(C)nc(SCCCNCc2ccc(Br)cc2)n1 | inconclusive: 10.3 µM [falling, partial curve, poor fit]
O=c1cc(CN2CCN(S(=O)(=O)c3ccc4c(c3)OCCO4)CC2)c2ccc(O)cc2o1 | inconclusive: 8.2 µM [falling, partial curve, poor fit]

Molecules above containing bromine, in the order listed:
Structure (SMILES) | Potency
CCOc1cc(C(N)=O)cc(Br)c1OC | inconclusive: 10.3 µM [falling, partial curve]
Cc1cc(C)nc(SCCCNCc2ccc(Br)cc2)n1 | inconclusive: 10.3 µM [falling, partial curve, poor fit]

(listing goes on)

Structure (SMILES) | Potency
Cc1cccc(OCC(=O)Nc2nc(-c3ccncc3)cs2)c1 | inconclusive: 5.8 µM [falling, partial curve]
COc1ccc(S(=O)(=O)NCc2cccnc2)cc1Br | active: 7.31 µM
CSc1ccccc1OCc1cc(C(=O)NC(C)c2cnn(C)c2)no1 (stereo not drawn) | inconclusive: 23.1 µM [activator, single point]
COc1cccc(CNC(=O)c2c(C)nn(-c3cccc(C)c3)c2-n2cccc2)c1 | inconclusive: 29.1 µM [falling, single point]
O=C(CN1CCN(c2ccccn2)CC1)Nc1ccc([N+](=O)[O-])cc1C(=O)Nc1ccccc1F | inconclusive: 9.2 µM [falling, partial curve, poor fit]
COc1ccc(NC(=O)c2ccc(CN3CCc4ccccc4C3)cc2)c(OC)c1 | inconclusive: 29.1 µM [falling, single point]
COc1ccc(-c2sc3cc4c(cc3c2C#CC2(N)CCCCC2)OCO4)cc1 | inconclusive: 18.4 µM [activator, partial curve, poor fit]
c1ccc(-c2ccc3ccccc3n2)cc1 | inconclusive: 20.6 µM [activator, single point]
O=C(CSc1nnc(-c2cccnc2)o1)Nc1ccccc1F | inconclusive: 4.11 µM [activator, full curve, poor fit]
COc1cccc(-c2nnc3n2N=C(c2ccccc2OC)CS3)c1 | inconclusive: 13 µM [falling, single point]
O=[N+]([O-])c1ccc(O)c(/C=N/Nc2ncnc3c2cnn3-c2ccccc2)c1 | inactive
C=CCN=c1scc(-c2ccco2)n1/N=C/c1ccc(O)c(O)c1O | inactive
Cc1nn(C)c(C)c1CN(C)C(=O)CCCC(=O)O | inactive
O=C1c2ccccc2C(=O)N1c1cnc2ccccc2c1 | inactive
O=C(NCc1ccc(F)cc1)C1CCN(C(=O)c2ccc(-n3ccc4ccccc43)s2)CC1 | inconclusive: 29.1 µM [falling, single point]
Cc1ccc(S(=O)(=O)n2cccc2C)cc1 | inconclusive: 32.6 µM [falling, single point]
CCCOc1ccc(N2C(=O)CC(N(Cc3ccc(OC)cc3)C(=S)Nc3ccccc3)C2=O)cc1 (stereo not drawn) | inactive
CCC(C)(C)n1nnnc1C(C(C)C)N(Cc1cccnc1)Cc1ccco1 (stereo not drawn) | inconclusive: 0.0461 µM [falling, full curve]
CCOC(=O)CCC(=O)Nc1ncnc2c1C(c1ccccc1)c1c(ccc3ccccc13)O2 (stereo not drawn) | inactive and active: 6.51 µM
COc1ccc(CCC(=O)N2CCN(c3ccc([N+](=O)[O-])cc3)CC2)cc1OC | inconclusive: 20.6 µM [falling, single point]
Cc1ccc2cc(CN(c3ccccc3C)S(=O)(=O)c3ccccc3)c(=O)[nH]c2c1 | inactive

Structure (SMILES) | Potency
Cc1ccc(C(=O)Nc2nnc(S(=O)(=O)N3CCOCC3)s2)cc1 | inconclusive: 5.17 µM [activator, partial curve]
CCOc1ccc(CN2CCN(C(=O)c3cccc(F)c3)CC2)cc1 | inconclusive: 18.4 µM [falling, single point]
O=C(CC1Sc2ccccc2NC1=O)NNc1ccc(Cl)c(Cl)c1 (stereo not drawn) | inactive
CCNc1nc(NCC)nc(N2CC(=O)N(CC(=O)OCC)C2=N)n1 | inconclusive: 18.4 µM [activator, partial curve, poor fit]
COC(=O)CN1C(=O)N/C(=C/c2cc3c(cc2OC)OCO3)C1=O | inconclusive: 9.2 µM [activator, single point]
O=C(NCc1ccc2c(c1)OCO2)c1ccc(N2CCCCCC2)c([N+](=O)[O-])c1 | inconclusive: 16.4 µM [falling, partial curve, poor fit]
O=C(/C=C\Nc1ccc2c(c1)OCO2)c1ccc(Cl)s1 | inconclusive: 2.59 µM [activator, full curve]
c1ccc(-c2cn3c(n2)CCc2ccc4cccnc4c2-3)cc1 | inconclusive: 29.1 µM [falling, single point]
Cc1ccc(NC(=O)c2ccc(N/N=C/c3cccc(O)c3)c([N+](=O)[O-])c2)cc1 | active: 18.4 µM
Cc1nnc(NC(=O)c2oc3ccccc3c2C)s1 | inconclusive: 3.26 µM [activator, full curve, poor fit]
COc1ccc2oc(C(=O)OC(C)C(=O)NC3(C#N)CCCCC3)c(C)c2c1 (stereo not drawn) | inactive
CCc1ccc(-n2nnc(-c3nc(-c4ccccc4)no3)c2C)cc1 | inconclusive: 7.31 µM [falling, single point]
Cc1oc(-c2ccc3c(c2)OCCO3)cc1C(=O)NCC(=O)O | inconclusive: 29.1 µM [falling, single point]
CCOc1ccc(CCN2C(=S)N([C@@H](CC(C)C)CN3CCCC3CN3C(=S)NC[C@@H]3CC(C)C)C[C@@H]2Cc2ccccc2)cc1 (stereo partly drawn) | inactive
COc1ccc(CCNC(=O)c2ccc3c(c2)N(Cc2cccc(C)c2)C(=O)c2ccccc2S3(=O)=O)cc1OC | inconclusive: 2.59 µM [activator, full curve, poor fit]
CC(/C=N/N1CCN(c2ccccc2)CC1)=C\c1ccco1 | inconclusive: 2.31 µM [activator, full curve]
CCn1cc(S(=O)(=O)c2cc(C)cc(C)c2)c(=O)c2cc(F)c(N3CCOCC3)cc21 | inconclusive: 8.2 µM [falling, partial curve]
CCN(CC)C(=O)c1ccc(COc2ccccc2Br)o1 | inconclusive: 25.9 µM [falling, single point]
COc1cccc(C(=O)Nc2cccc(OCC(=O)c3ccccc3)c2)c1 | inconclusive: 16.4 µM [falling, single point]
CSc1nc(N2CCN(C)CC2)c2c(c1C#N)CC(C)(C)OC2 | inconclusive: 1.3 µM [falling, partial curve, poor fit]
COc1ccccc1Nc1nc(-c2cccnc2)cs1 | inconclusive: 29.1 µM [activator, single point]
